In ChEMBL document CHEMBL4296182, “CO-ADD screening of NIH NCI Diversity Set V”:
This is one part of the list. Results with a measured potency or affinity are listed apart.

tested on: Pseudomonas aeruginosa; details: Concentration 20 uM; ASSAY_TEST Inhibition of Bacterial Growth; detection method Absorption (OD600); MEDIA CAMHB; plate type 384well; NBS; CORNING #3640; time 18 hr

Row | SMILES | Inhibition
1 | COc1cc(C(=O)C(=O)c2ccc(O)c(OC)c2)ccc1O | 13.12%
2 | COc1ccc(Cc2nnc(SC)n2-c2ccc(F)cc2)cc1OC | 8.89%
3 | CCOC(=O)C1CC(=O)c2cc(OC)c(OC)cc2C1 (configuration not stated) | 4.17%
4 | CCOC(=O)Nc1c2ccccc2nc2ccccc12 | 16.61%
5 | CS(=O)(=O)Oc1ccc(Br)c2cccnc12 | 19.99%
6 | O=C(Nc1ccc2ccccc2c1)c1ccc(Cl)cc1Cl | 10.38%
7 | Cc1cc(/C=C2\SC(=S)NC2=O)cc(C)c1O | 10.17%
8 | CCC1(C(=O)OC)CCc2c(cc(OC)c3ccccc23)C1=O (configuration not stated) | 22.96%
9 | CN1CN(C)C(c2ccncc2)=C1c1ccncc1 | -2.44%
10 | CC(=O)CC(=O)Nc1ccc2ccccc2c1 | 2.07%
11 | O=C1COc2cccnc2N1 | 5.88%
12 | Oc1cc(-c2nn[nH]n2)nc(O)n1 | 21.93%
13 | COCC(=O)OC1CCn2c1nc1c2C(=O)C(C)=C(NC(C)=O)C1=O (configuration not stated) | 13.04%
14 | CN1CCc2ccccc2C1Cc1ccccc1NC(=O)c1sc2ccccc2c1Cl (configuration not stated) | -10.73%
15 | NS(=O)(=O)c1ccc(NC2(C(=O)O)CCCC2)cc1 | -14.85%
16 | CCOC(=O)C(C#N)C(=N)C1C(=O)OC2CCCCC21 (configuration not stated) | 21.59%
17 | CCCCOc1ccc(Nc2cc(Cl)ccc2C(=O)O)cn1 | 7.97%
18 | N=C(N)Nc1ccc(NC(=N)N)cc1 | 17.78%
19 | CCN(CC)CCNc1c(C)cc(CO)c(Cl)c1C.O=S(=O)(O)NC1CCCCC1 | 23.63%

Entries listed so far that contain a COOH group (2):
Row | SMILES | Inhibition
15 | NS(=O)(=O)c1ccc(NC2(C(=O)O)CCCC2)cc1 | -14.85%
17 | CCCCOc1ccc(Nc2cc(Cl)ccc2C(=O)O)cn1 | 7.97%

(more compounds)

Row | SMILES | Inhibition
20 | O=c1cc(-c2cccnc2)oc2c1ccc1ccccc12 | 19.87%
21 | Nc1ccc(Br)cc1Br | 1.43%
22 | CCOC(=O)CC1(C)NC(C(=O)O)C(C)(C)S1 (configuration not stated) | -9.73%
23 | CS(=O)(=O)Nc1nc2ccccc2[nH]1 | -0.15%
24 | Nc1ncnc2c1ncn2C1C=C(CO)C(O)C1O (configuration not stated) | 21.12%
25 | S=C(Nc1ccccc1)Nc1nccs1 | -7.41%
26 | CC1=CC2=C(C=O)C(=O)[C@](C)(O)[C@@H](O)C2=CO1 | 3.32%
27 | O=C(OCC1CCC=CO1)C1CCC=CO1 (configuration not stated) | 3.13%
28 | Cc1cc(C)n(C(=N)NC(=O)c2ccccc2)n1 | 1.69%
29 | NC(=O)/C(=C\c1ccncc1)c1cccc2ccccc12 | 18.99%
30 | O=C1c2cccc(Sc3ccccc3)c2C(=O)c2c(Sc3ccccc3)cccc21 | 26.77%
31 | CCCNC(=O)c1ccc(S(N)(=O)=O)cc1 | 10.97%
32 | Cc1ccc(Cl)cc1NC(=O)N(C)CCO | -11.85%
33 | O=C(COc1cc(Cl)c(Cl)cc1Cl)Nc1ccc([N+](=O)[O-])cc1Cl | 19.21%
34 | CSC(=N)NS(=O)(=O)c1ccc(NC(C)=O)cc1 | 22.54%
35 | Clc1nc(Cl)nc(-c2cn(-c3ccccc3)c3ccccc23)n1 | 16.52%
36 | c1ccc(-c2nc(-c3ccccn3)nc(-c3ccccn3)n2)nc1 | 11.58%
37 | Cc1cccc(NC2=C(C#N)C(=O)NC3(CCCC3)S2)c1 | -6.88%
